{
  "source": "paper PMC7819943",
  "about": "“Rice protein-binding microarrays: a tool to detect cis-acting elements near promoter regions in rice”",
  "note": "This is one part of the list.",
  "data": [
    {"molecular_target": "T1, OsSMF1 (Oryza sativa, UniProt Q6ZLB0 1-436)", "T1 sequence": "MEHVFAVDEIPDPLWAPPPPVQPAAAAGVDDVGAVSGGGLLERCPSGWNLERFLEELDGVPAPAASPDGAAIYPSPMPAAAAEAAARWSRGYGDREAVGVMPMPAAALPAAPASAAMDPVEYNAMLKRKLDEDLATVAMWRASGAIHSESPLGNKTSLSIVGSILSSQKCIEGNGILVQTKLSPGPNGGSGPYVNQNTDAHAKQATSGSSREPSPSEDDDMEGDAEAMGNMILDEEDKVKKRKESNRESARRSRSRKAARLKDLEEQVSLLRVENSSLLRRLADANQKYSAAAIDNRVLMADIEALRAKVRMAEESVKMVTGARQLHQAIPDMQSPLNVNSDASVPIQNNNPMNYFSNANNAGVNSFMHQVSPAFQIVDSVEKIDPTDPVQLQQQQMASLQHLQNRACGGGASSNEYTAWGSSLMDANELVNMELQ", "assay": "protein-binding microarray (RPBM); PBS, 2% BSA, 51.3 ng/ul salmon testes DNA, 50 uM zinc acetate, 200 nM TF, 25 C, 1 h; high values mean tight binding", "conditions": "protein: recombinant; tags: N-terminal polyhistidine and DsRed monomer fusion (pET32a); chain copies: 2; label: CyDye5-dUTP incorporated in the synthesized complementary strand; 3' TTTTT single-stranded linker to array surface; dsDNA, one strand shown", "outline": "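Per-feature fluorescence intensity (arbitrary units), read on an Axon 4000B scanner, is the binding signal. Transcription factors carrying an N-terminal polyhistidine tag and DsRed fusion were expressed in E. coli BL21-CodonPlus and purified on Ni–NTA. A custom Agilent array, made double-stranded by primer extension with Cy5-dUTP and blocked with 2% BSA, was incubated with 200 nM protein in PBS, 2% BSA, salmon testes DNA and 50 µM zinc acetate at 25 °C for 1 h and then washed.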", "values": [
      {"sequence": "CTGTCTTTGCTGGCTGCTGCCACGGCTTCCATTCCTCCCGCGGAGTCACCTAGTGCAG", "binding signal": "4280 fluorescence intensity (a.u.)"},
      {"sequence": "GTACCCAATCGCGTCCACGTACTATTCCACTCTCTAACCTCGGAGTCACCTAGTGCAG", "binding signal": "7270 fluorescence intensity (a.u.)"},
      {"sequence": "GTAGATACACGTCGCGCGTTCGAGCCTAAGGTACCTGCTCCGGAGTCACCTAGTGCAG", "binding signal": "3800 fluorescence intensity (a.u.)"},
      {"sequence": "GATTCCTTCCTAGCTGTCACGTCATAGACTTCCCGAAGACCGGAGTCACCTAGTGCAG", "binding signal": "7890 fluorescence intensity (a.u.)"},
      {"sequence": "GCCGATTGTCCCTCACGCCAAACCATCACGTGTGCGCTTCCGGAGTCACCTAGTGCAG", "binding signal": "4000 fluorescence intensity (a.u.)"},
      {"sequence": "CTCCACTAATCTAAAATTTGTTTAATGGATCATTGCATCACGGAGTCACCTAGTGCAG", "binding signal": "9140 fluorescence intensity (a.u.)"},
      {"sequence": "GTATGGTGGTGTCTGCACGTAAGCATATACGTAGTACTACCGGAGTCACCTAGTGCAG", "binding signal": "6120 fluorescence intensity (a.u.)"},
      {"sequence": "AACTAGTACGGGTCAACGGAATGTGACGCTCATATCGATCCGGAGTCACCTAGTGCAG", "binding signal": "3300 fluorescence intensity (a.u.)"},
      {"sequence": "ACCAATCGCATGACGATATTCCCGCTCCCACAATCGCGTTCGGAGTCACCTAGTGCAG", "binding signal": "3550 fluorescence intensity (a.u.)"},
      {"sequence": "GTAGAAAGCAGGGATAAAGTATTGGTGGAGATGTCACGCCCGGAGTCACCTAGTGCAG", "binding signal": "3560 fluorescence intensity (a.u.)"},
      {"sequence": "GTGCTTGTCCTGCCTGCTTCGCTGACCTGTATAGCTTGACCGGAGTCACCTAGTGCAG", "binding signal": "6180 fluorescence intensity (a.u.)"},
      {"sequence": "GTATCAATGCATAACAGTGTGCCACGTACAGCCAGTAGCACGGAGTCACCTAGTGCAG", "binding signal": "5490 fluorescence intensity (a.u.)"},
      {"sequence": "CAGGGGTTTCCAATCTTGGGGTAACAACAACACATTGCGTCGGAGTCACCTAGTGCAG", "binding signal": "3440 fluorescence intensity (a.u.)"},
      {"sequence": "GGCCTCTGATTGCGTTGCGCCTTTCGTCGTGCCACGGCGTCGGAGTCACCTAGTGCAG", "binding signal": "9390 fluorescence intensity (a.u.)"},
      {"sequence": "ACCGTGTTGATAGAAATTTGTCATAGTCTCACATATTTTCCGGAGTCACCTAGTGCAG", "binding signal": "3340 fluorescence intensity (a.u.)"},
      {"sequence": "GGCAGCGACCACGACACGTCGTTGTTCCCTCTGCTCCCGCCGGAGTCACCTAGTGCAG", "binding signal": "6470 fluorescence intensity (a.u.)"},
      {"sequence": "TTTTCCTTTTCTCTTGGATGACGACAGATGCCGGTTTGTGCGGAGTCACCTAGTGCAG", "binding signal": "4220 fluorescence intensity (a.u.)"},
      {"sequence": "TTCATATAGATTTTATTGAATCTTAACGCACATATATATACGGAGTCACCTAGTGCAG", "binding signal": "22200 fluorescence intensity (a.u.)"},
      {"sequence": "TTGTTTCCTACGTACGACGATGACGAGTCCACTCGGAATACGGAGTCACCTAGTGCAG", "binding signal": "4150 fluorescence intensity (a.u.)"},
      {"sequence": "CGTGATACGCTTAATATTACTAGCGTCAGCCTTGCTGTCACGGAGTCACCTAGTGCAG", "binding signal": "5340 fluorescence intensity (a.u.)"},
      {"sequence": "CTTAAGGGTGGATCTGACAATGGTAGCGACACTTGCATCACGGAGTCACCTAGTGCAG", "binding signal": "3180 fluorescence intensity (a.u.)"},
      {"sequence": "ACTGTAGCTAATCCAGTTTTAAATTAAAGGACGTGTTTTACGGAGTCACCTAGTGCAG", "binding signal": "8680 fluorescence intensity (a.u.)"},
      {"sequence": "TTGATTTCTTCCTCTGCGAGTCCACTCCCAGTCCAGGGTCCGGAGTCACCTAGTGCAG", "binding signal": "4240 fluorescence intensity (a.u.)"},
      {"sequence": "CAAAGAGCCCTGTTATGTTGACTGGTGCACAGTGTCATCACGGAGTCACCTAGTGCAG", "binding signal": "3890 fluorescence intensity (a.u.)"},
      {"sequence": "CATTGGTGGCGTAATGTGGTTGTTAGTGATTTGTTGCACCCGGAGTCACCTAGTGCAG", "binding signal": "3460 fluorescence intensity (a.u.)"},
      {"sequence": "CATGAATACAAAAGAACAGTTATTTAGACAGGTGTAAATACGGAGTCACCTAGTGCAG", "binding signal": "30100 fluorescence intensity (a.u.)"},
      {"sequence": "GTACGGATATAGCACTAGTTGTCAGCAACCACTCAACCGGCGGAGTCACCTAGTGCAG", "binding signal": "3360 fluorescence intensity (a.u.)"},
      {"sequence": "ACTAACATGTCACGTAATTTCAATAAGCAAGATAGTAATACGGAGTCACCTAGTGCAG", "binding signal": "33000 fluorescence intensity (a.u.)"},
      {"sequence": "AAACCCACTCCACCACACGGGTCGACTCGACTCCCACTCGCGGAGTCACCTAGTGCAG", "binding signal": "5910 fluorescence intensity (a.u.)"},
      {"sequence": "CTACATAATATTATTAATTTGTGTGCGAAACTGCATGTGGCGGAGTCACCTAGTGCAG", "binding signal": "3840 fluorescence intensity (a.u.)"},
      {"sequence": "GGAATTGCGTGATTGAATTCAAAATTGGGATGATAAATATCGGAGTCACCTAGTGCAG", "binding signal": "5320 fluorescence intensity (a.u.)"},
      {"sequence": "AAGAAGGCCCGTCTAGCTCAGTCGGTAGAGCGCAAGGCTCCGGAGTCACCTAGTGCAG", "binding signal": "35100 fluorescence intensity (a.u.)"},
      {"sequence": "GCCAGCGTGGTAGTCTGGCAGGCATAGTATATTCGATTTGCGGAGTCACCTAGTGCAG", "binding signal": "24800 fluorescence intensity (a.u.)"},
      {"sequence": "GCAGCATCTGTGATCTCTCAGTGGGACCCACGTGTCATTGCGGAGTCACCTAGTGCAG", "binding signal": "5010 fluorescence intensity (a.u.)"},
      {"sequence": "TTGACCATCGGCCACACGTGTGTGGGTGCGTGCGTGCGTGCGGAGTCACCTAGTGCAG", "binding signal": "6830 fluorescence intensity (a.u.)"},
      {"sequence": "GCCAGGCAGGGGAGGGTCGTTAAGTAGCATCCCATGTCACCGGAGTCACCTAGTGCAG", "binding signal": "3940 fluorescence intensity (a.u.)"},
      {"sequence": "AAACCTCTCTAACATTACCCTGTCAGTTATTGTCAGGCCCCGGAGTCACCTAGTGCAG", "binding signal": "3510 fluorescence intensity (a.u.)"},
      {"sequence": "TACGGCATGAATGACATAACGCTGTCGACAATTGACCTGCCGGAGTCACCTAGTGCAG", "binding signal": "3740 fluorescence intensity (a.u.)"},
      {"sequence": "CTGCCGCCCTGCACACACATGCACATTGGCACGAGCTTAGCGGAGTCACCTAGTGCAG", "binding signal": "3880 fluorescence intensity (a.u.)"},
      {"sequence": "ACATTTTGCGTGCGTGGAGAGAAGCACTAATACACCATTACGGAGTCACCTAGTGCAG", "binding signal": "3840 fluorescence intensity (a.u.)"},
      {"sequence": "TTTGGGTGCTAGCCGCGCAATTGTGCGCGCCACCCAACTACGGAGTCACCTAGTGCAG", "binding signal": "32900 fluorescence intensity (a.u.)"},
      {"sequence": "GTTCGTAAGACGTGGATCTGAATGTCAACATTGTCGTTTGCGGAGTCACCTAGTGCAG", "binding signal": "6070 fluorescence intensity (a.u.)"},
      {"sequence": "TAGCTGAGTGACACCTCACCGTTTGGTTTTCACCCTCCCACGGAGTCACCTAGTGCAG", "binding signal": "8070 fluorescence intensity (a.u.)"},
      {"sequence": "TTGCGTCGTCGGTGGCGTCACTGCCACACCCACCCACCCGCGGAGTCACCTAGTGCAG", "binding signal": "8080 fluorescence intensity (a.u.)"},
      {"sequence": "ATCGCTTAAAATTTCGCAAATTAAGGGTGTGTACGTGTGTCGGAGTCACCTAGTGCAG", "binding signal": "3780 fluorescence intensity (a.u.)"},
      {"sequence": "GTCTAAACACAGTCACCTTTGCTGATTATTGTTATAAGTCCGGAGTCACCTAGTGCAG", "binding signal": "4060 fluorescence intensity (a.u.)"},
      {"sequence": "GAGGTTCAAGTGGAGTGGTGTGGTGGAGGTGGAGCTGGTGCGGAGTCACCTAGTGCAG", "binding signal": "3880 fluorescence intensity (a.u.)"},
      {"sequence": "TCCCTAAACTTGTCATGTGTGTCATATAGGTCCTAACCGGCGGAGTCACCTAGTGCAG", "binding signal": "5100 fluorescence intensity (a.u.)"},
      {"sequence": "GAGGTCGCCCCTTTTCCCCTCCATACCATCGAGCTCTCCGCGGAGTCACCTAGTGCAG", "binding signal": "11500 fluorescence intensity (a.u.)"},
      {"sequence": "TAGTACTTGCTCTACGAGAGATAGGGTCCATAATCTTCTACGGAGTCACCTAGTGCAG", "binding signal": "3290 fluorescence intensity (a.u.)"},
      {"sequence": "CATCTGATCCTCTCCACTTGCATGCACTTTCTGACTGTAGCGGAGTCACCTAGTGCAG", "binding signal": "3420 fluorescence intensity (a.u.)"},
      {"sequence": "GATATGCCTATGTTGAACTTGTGCCCTTCGACAAGCCTCACGGAGTCACCTAGTGCAG", "binding signal": "3200 fluorescence intensity (a.u.)"},
      {"sequence": "TGCCACATACTTATTGATGATGTGTCATGATTGCATGGGACGGAGTCACCTAGTGCAG", "binding signal": "10400 fluorescence intensity (a.u.)"},
      {"sequence": "ACTTTTCCGTCACATCGTTTTAATTTCTTTAAACTTTTAACGGAGTCACCTAGTGCAG", "binding signal": "4680 fluorescence intensity (a.u.)"}
    ]}
  ]
}
